{"source": "patent US6043284A", "about": "“Anti-atherosclerotic diaryl compounds” (Glaxo Wellcome Inc., priority 1993, dated 2000)", "target": "T1, ACAT (Homo sapiens, UniProt P35610)", "T1 construct": "Microsomal protein is therefore used as the source of both ACAT and cholesterol; endogenous in cells; host or cells: microsomal protein of human embryo 407 intestinal epithelial cell line (Intestine 407)", "T1 sequence (P35610 1-550)": "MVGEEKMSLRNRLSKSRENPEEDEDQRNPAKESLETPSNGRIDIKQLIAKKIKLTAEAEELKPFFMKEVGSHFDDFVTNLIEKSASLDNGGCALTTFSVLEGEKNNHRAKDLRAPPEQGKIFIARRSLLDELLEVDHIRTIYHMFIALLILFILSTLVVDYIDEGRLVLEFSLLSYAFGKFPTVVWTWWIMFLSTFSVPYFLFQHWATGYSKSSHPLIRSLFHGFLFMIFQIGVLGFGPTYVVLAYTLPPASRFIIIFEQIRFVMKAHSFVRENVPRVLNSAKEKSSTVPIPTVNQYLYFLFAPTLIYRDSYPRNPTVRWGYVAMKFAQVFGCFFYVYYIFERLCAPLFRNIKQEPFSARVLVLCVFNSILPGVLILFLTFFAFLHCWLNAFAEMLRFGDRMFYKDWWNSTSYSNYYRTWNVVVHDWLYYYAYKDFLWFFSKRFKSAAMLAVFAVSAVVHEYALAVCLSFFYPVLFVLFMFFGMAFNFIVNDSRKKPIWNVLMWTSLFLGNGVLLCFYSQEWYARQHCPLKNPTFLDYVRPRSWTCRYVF", "assay": "In vitro inhibition of ACAT (radiometric, [^14 C]oleoyl CoA, microsomal protein)", "type": "biochemical, human (human embryo 407 intestinal epithelial cell line)", "details": "microsomal enzyme, 37° C., pH 7.0, 4 minutes", "note": "Some of these results come from one statement about several compounds together. For at least one compound, name, drawing or mass did not settle the structure.", "data": [{"molecule": "CC(C)(C)C(=O)Nc1c(F)cc(F)cc1Oc1ccc(C2(C#N)CCCC2)cc1", "note": "[Example 4, 1-[4-(3,5-Difluoro-2-pivalamidophenoxy)phenol]gyclopentane-1-nitrile]", "values": [{"measurement": "IC50", "result": "< 10", "unit": "µM"}]}]}
